These results are taken from PubChem BioAssay AID1347426 (Functional Genomics Laboratory (NCATS/FGL), 2020).

Out of some 31,000 sequences screened, about 1,400 (4.5%) were called active.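 The calls were made as follows: active = median seed-adjusted z-score above 1 or below -1; inactive = the rest.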 The list shows a part of the results.

The nature of the assay: Novel Modifiers of Survival Motor Neuron (SMN) Protein: Gene Identification via Genome-wide siRNA Screen.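 Also: luminescence tracks full-length SMN protein made from the SMN2 reporter.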 The conditions noted are these: HEK293T SMN2-luciferase reporter, siRNA knockdown, 72 h; actives lie on both sides. An outline of the steps:
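Steps: spot 1 pmol siRNA, add Lipofectamine RNAiMax in serum-free DMEM, seed HEK293T SMN2–luciferase reporter cells; incubate 72 h at 37 °C; add ONE-Glo; normalize luminescence to control siRNA, log10, MAD. Candidates: |MAD| > 1.0.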
Regarding CUGCUCUAAUUACACCGUATT against CILP, the median seed-adjusted z-score is inactive: 0.0436.
Regarding CAUGGAACCCAGAGACUUATT against GDPD2, the median seed-adjusted z-score is inactive: -0.0868.
For GGGUCAUCAGUAGCAUUGATT against YWHAG, the median seed-adjusted z-score was active: 1.98.
CGACUAGAGAGCUACAGGATT against CCL11: the median seed-adjusted z-score is inactive: -0.221.
For GGACCUGUCUUAACAGUAATT against VNN1, the median seed-adjusted z-score is inactive: 0.549.
Under ACAACGAGCCUGAGAAGGATT against DLX2 stands inactive: -0.527; under ACUUUGAAGGCUUAACGAUTT against PMS2L3, inactive: 0.175.
Under CUACUUUGCUUUCAUCACUTT against KCNK16 stands inactive: 0.
Under GAGACAACCAAAAAGUGCATT against GUSB stands inactive: -0.542; under CCUUCUACAUCGGCAGCUATT against COPE, inactive: 0.499; under CAGCCGUACCAGAAAUAAATT against CD7, inactive: 0.249.
On to CGAUCAACCAGAUGACGAUTT against APPL2, for which the median seed-adjusted z-score was inactive: -0.245.
In the case of GGACAACUAUAAGGAGUUATT against SLC37A2, the median seed-adjusted z-score is inactive: 0.134.
Under CCGUAAAGCUGCAUUAGAATT against CUGBP1 stands inactive: 0.086; under CAGCGUGUAUGGACCAGAUTT against B9D1, inactive: -0.161; under GGUAUCGAAUGAUAACAGATT against YARS2, inactive: 0.0901.
On to GGUGGUAUCCUGUUCACAATT against TM9SF4, for which the median seed-adjusted z-score is inactive: -0.0191.
Under CCGUGGUUACAGAAACGUATT against ABHD3 stands inactive: -0.126; under AGAUCUACCCAGACCCGGATT against TRAF4, active: -1.16.
With CACUUCUACUAUUUCGUCATT against MOBKL2A the figure was inactive: 0.268.
With GCACCUCCACAGAGAGAAATT against MCAM the figure was inactive: -0.0884; with AGCCAUGUUUGGGCCUAAATT against CRIP1, inactive: -0.622; with GCCUGAAACUGGAGCCUCATT against SLC3A2, inactive: -0.0428.
Regarding AAUCAACUGCUGGACGAGATT against COL13A1, the median seed-adjusted z-score is inactive: -0.112.
Under CGAGAGGGCUGUUUCCAAATT against LIMS3 stands inactive: -0.078; under GAAUUGGAGUGAUUCGAAUTT against NETO2, inactive: -0.136.
Under GAAGAAACCCGAGUGCAAATT against RARRES2 stands inactive: -0.125; under CCCUGUCACGGUACACUUUTT against CHRNA6, inactive: 0.21; under GAAAGAAGCGGUUUUAUUUTT against IGHMBP2, inactive: -0.271.
Under GCCUUUUGCUCAUCUCACUTT against TNFSF11 stands inactive: 0.0212; under GAAUUUCCGUGAAUAGCAATT against KLHL7, inactive: -0.567; under GCCCAAUGUUCGAUACUCATT against ALOXE3, inactive: -0.504.
Consider CAAAAGGACAAAUCAACGATT against DDAH1, for which the median seed-adjusted z-score is inactive: 0.138.
With GGGAGAUCUUCGACUCAUATT against ADRBK1 the figure was inactive: 0; with CAAAGGAUGUCAUUCGUAATT against CKAP5, active: -1.87; with GCUACUUGGUGGGUGAUGATT against PAK3, inactive: 0.
Under GGAAUCUCAUUUUAUCGUATT against SLC7A2 stands inactive: -0.245.
As to GAGUCAAUCUCCGAAAACATT against PKDREJ, the median seed-adjusted z-score was inactive: 0.376.
Under GCACAGACGUGGUUCUGCATT against PVRL1 stands inactive: -0.362.
With CCACGGCACAUGGAACUAATT against SLC7A14 the figure was inactive: 0.132; with CCUGAUCACUUGAACUAUUTT against HACE1, inactive: 0.
Turning to GGACUCUUUUGAAAGCAUATT against ETS1, the median seed-adjusted z-score is inactive: -0.0588.
Under GAACUUCGUCAUCCAAAUATT against CDC2 stands inactive: 0.424; under GGAUAACUGCACAUAAGGATT against TGS1, inactive: -0.564; under CAGAUAGACUGAUCUCAAATT against 5-Mar, inactive: 0.
Under CUAAGAAUCUGCUUAGUAATT against CLDN5 stands inactive: 0; under UAAUGACACUUAUCAAAUATT against PLGLB2, inactive: 0.234; under GCAAAUCGCUAGCAUCAUUTT against MLL2, active: -2.11.
Under GCUACUAACAUUACUCCAATT against FOLH1 stands inactive: 0.148; under GAGCAGUCGCGAGAAGAUUTT against PPP1R12C, inactive: -0.535.
With CCAUGAUGAUAUUCCUUAUTT against PCYT1A, the median seed-adjusted z-score was inactive: 0.0429.
Take CGGACAAAUUGGUCAAUGATT against ATP1A3: the median seed-adjusted z-score was inactive: 0.329.
Take CAACCGAACAGGACCUGAATT against TARDBP: the median seed-adjusted z-score is inactive: 0.987.
Under GAUCCAGAUUGGUCAAAAATT against PPAP2A stands inactive: 0; under GGAAGAAAUUAGCUAAAAATT against MKI67IP, inactive: 0.426.
Under UGAUGCCUGUGAUACACUATT against NEU1 stands inactive: -0.425; under GAUACUCAGAAGUUGAUAATT against MYSM1, inactive: -0.116; under GGACAGACAGACUAAUGUATT against FOXJ1, inactive: -0.553.
As to AGCUCACGCUGGGAAAAUUTT against SGCG, the median seed-adjusted z-score was inactive: 0.886.
With CAUCAGAUGGGAGAAUGAUTT against LSM8 the figure was inactive: -0.44; with GACGAUUAGUGGGUCAAAATT against GRM7, inactive: 0.389; with GCAUAUGACUUGUAUUCCUTT against TFB2M, inactive: 0.206.
In the case of GCUCAUAAGGAUGAACUAUTT against KCNH5, the median seed-adjusted z-score is inactive: -0.827.
With UCAUCACAGCGGUACUGUATT against ITGAX the figure was inactive: -0.0677.
As to GAUUAUACCUUGACAAUGUTT against GABRB2, the median seed-adjusted z-score is inactive: 0.288.
Under GGAGAUACCCAAGCAACUATT against PTAR1 stands inactive: -0.507.
As for GGUUAAUUAUGUAUGGUUUTT against SLC9A9, the median seed-adjusted z-score was inactive: 0.143.
With GAGAAGAACCAGUACAAGATT against KCNJ12, the median seed-adjusted z-score is inactive: -0.641.
Turning to CCACUAGCUGAUUACUAUATT against MED6, the median seed-adjusted z-score was active: -2.15.
CCAGGCUUCCCAAAAGUGUTT against S100P: the median seed-adjusted z-score is inactive: -0.00831.
CGGUCAUUGUCGAUGGAUATT against ZNF295: the median seed-adjusted z-score is inactive: 0.371.
As to GAUCAUUAAGGAGUAUGAATT against STOML3, the median seed-adjusted z-score is inactive: -0.0711.
With CAACUAGUGCAACCAGUAATT against ZNF207 the figure was active: -3.1; with GGAAAUUGGUUUGUAGGAATT against PVRL3, inactive: -0.0385; with AUGUGGUGGUUUAUAGCUATT against ERCC2, inactive: -0.0551.
Regarding GCAUGACCCUCACGAUACATT against LIMK1, the median seed-adjusted z-score is inactive: -0.428.
For GGGAAGCUAUGCGAAAUUATT against RBPJ, the median seed-adjusted z-score was inactive: -0.452.
On to GCAGUUCGGCAGUAUCUGUTT against PSMD6, for which the median seed-adjusted z-score was active: -1.03.
Under GACCAGCCGUGUAGAAGAATT against PPP1R12B stands inactive: 0.416; under GCAGCUAUUUGUCUCCGAATT against USP43, inactive: 0.
With GCAAAAGGUGUUUCACAUUTT against FGD1 the figure was inactive: 0.414; with GCAUCUCACCCACUGCCUUTT against TSKU, inactive: -0.548; with CCCUUGGUGUGGUACUUCATT against CYP20A1, inactive: -0.796.
As for AAAGAGCUCCGAGCCUUUATT against PRICKLE3, the median seed-adjusted z-score was inactive: 0.0332.
With GGAAAAUACUAUACCCUCATT against ACADVL the figure was inactive: -0.476.
Regarding GAACAUCAUCUGUAGUUCATT against HCRTR2, the median seed-adjusted z-score was inactive: -0.236.
For AAAUCGACGUGGUCACUGUTT against MYCN, the median seed-adjusted z-score was inactive: 0.00242.
For GCCUGAGACCAAAAACAGATT against SLC2A9, the median seed-adjusted z-score is inactive: 0.216.
Under GCUUUGGUGUGUUUGCAGATT against NTHL1 stands inactive: 0.364; under CAUCGUCUCUGCUGACAAATT against TUBAL3, active: 1.05.
GCUUCGUGGUGGACUCAAATT against MYH3: the median seed-adjusted z-score is inactive: -0.113.
Under GAAUCAUCCCUUUAGAGAATT against CYTH1 stands inactive: 0.348; under GGACAAAGCUAAUUGAUCUTT against EBP, inactive: 0.017.
For GGAAGAACAUGACAACCAATT against IFIT1, the median seed-adjusted z-score was inactive: -0.489.
Regarding AGGUUUUAACGAUUUGUUUTT against MAZ, the median seed-adjusted z-score was inactive: 0.316.
With CCAAGAAGAUCAGCACCUUTT against GPR26 the figure was active: -1.33; with GACUUACACUCAACCCUCATT against FUK, inactive: -0.0381; with UCAUCUCGCUGGUAACUCATT against EXOSC2, inactive: -0.0798.
“GGCUGGAUCUUACAAGUGUTT against DKFZP586H2123”: the median seed-adjusted z-score is inactive: -0.38.
CCUCAACAGUCACGUCAGATT against MAZ: the median seed-adjusted z-score was inactive: 0.316.
With GUUUGACAUCGUCAAGAAATT against ARFIP2 the figure was inactive: 0.748; with CCUAUGAUAUGGUUCCAGATT against COX5A, inactive: -0.348; with CCAUUUCGAUGCAACGUGUTT against ZNF235, inactive: 0.348.
For GGCAUAUAUCAAUCGCCUATT against ENTPD7, the median seed-adjusted z-score is inactive: 0.368.
On to GAGUUCGAGAGAUCCAAGATT against UQCRQ, for which the median seed-adjusted z-score was inactive: 0.0241.
As for CCUCGGAAGAGAUCACUAUTT against POU2F1, the median seed-adjusted z-score is inactive: 0.317.
With CAGAAUAUAUGACAGGAAATT against YY1 the figure was active: 1.94; with CACUGUGAAUCGUCGCUAUTT against SNX19, inactive: 0.67.
